# Where “and” joins values, the source holds several entries; their conditions need not be identical. Equal values may be shown once. The whole screen tested about 230,000 compounds, of which about 310 (0.13%) were called active. The shares of active, inactive and inconclusive entries below differ from those in the screen. Calls follow the shape of the dose curve; as a rule, active = well fitted activation curve with a large enough effect; inconclusive = small, poorly fitted or top-dose-only effect; inactive = no such curve, though single readings can be large or run the other way. A potency beside an inconclusive call is a rough fit, not a confirmed value.
# Test: qHTS Multiplex Assay to Identify Dual Action Probes in a Cell Model of Huntington: Cytoprotection (ATP); also: nearly all actives have a fitted effect of over 45% in size;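 as to cytoprotection (ATP increase): toxic huntingtin expression switched on by the ecdysone agonist tebufenozide; % of control where 0% means no effect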
# Settings: PC12 HTT-Q103 induced, ATP luminescence, 40 h; cytoprotection (ATP increase): at 56.4 µM (top of the series)
# How it was run: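 Compounds were screened for protection of PC12 cells against cell death after tebufenozide induction (100 nM final) of mutant Huntingtin exon 1 (Q103) fused to GFP.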
# Potency is read from the fitted curve at half-maximal effect.
SMILES,Potency,cytoprotection (ATP increase)
Nc1ccc(Cl)cc1N,"inconclusive: 31.6 µM [activator, single point]",–
CC1=CC2/C=C(\C)CCC(O)C(O)/C=C/C(=O)C23C(=O)NC(CC(C)C)C3C1C (configuration not stated),"inconclusive: 3.98 µM [activator, single point]",–
COC1CC(OC2CC[C@@]3(C=O)C4CC[C@]5(C)C(C6=CC(=O)OC6)CC[C@@]5(O)C4CC[C@]3(O)C2)OC(C)C1O (some centres not stated),"inconclusive: 20 µM [activator, single point]",–
NCC1(CC(=O)O)CCCCC1,"inconclusive: 1 µM [activator, partial curve] and inconclusive: 39.8 µM [activator, single point]",–
CCC[C@@](C)(COC(N)=O)COC(=O)NC(C)C,"inconclusive: 0.251 µM [activator, full curve, poor fit]",–
Clc1ccccc1-c1cncnc1NCCc1cnc[nH]1,"inconclusive: 12.6 µM [activator, partial curve]",–
CC(=O)[C@H]1CC[C@H]2C3CC[C@H]4C[C@H](O)CC[C@]4(C)C3CC[C@]12C (some centres not stated),"inconclusive: 1 µM [activator, partial curve]",–
O=[N+]([O-])c1ccccc1,"inconclusive: 1.41 µM [activator, full curve]",–
C=CC(=O)OC,inactive,–
CCCCCCCCCC(=O)O[C@H]1CC[C@H]2[C@@H]3CCC4=CC(=O)CC[C@@H]4[C@H]3CC[C@]12C,"inconclusive: 5.62 µM [activator, single point]",–
CC/C=C\C/C=C\C/C=C\C/C=C\C/C=C\CCCC(N)=O,"inconclusive: 6.31 µM [activator, single point]",–
CCC(C)N1CCN(C(=O)Cc2ccccc2)CC1 (configuration not stated),inactive,–
CC1CCCN(C(=O)CN2C3CCC2CC(O)(c2ccc(F)cc2)C3)C1 (configuration not stated),inactive,–
c1ccc2cc(C3N4CCCN34)ccc2c1 (configuration not stated),active: 3.98 µM,–
CC[N+]1(C)CCCC(OC(=O)C(O)(c2ccccc2)c2ccccc2)C1 (configuration not stated),"inconclusive: 7.08 µM [activator, full curve, poor fit]",–
CCCN(CCC)[C@H]1CCc2c(F)ccc(O)c2C1,–,inactive: -2.09% [at 1.9 µM] and inactive: 11.7% [at 1.9 µM]
c1ccc2c(c1)OCC(C1=NCCN1)O2 (configuration not stated),active: 15.8 µM,–
CC(Cc1ccccc1)NCc1ccccc1Cl (configuration not stated),"inconclusive: 35.5 µM [activator, single point]",–
CCN1CCN(c2ccc(N)c(C)c2)CC1,inactive,–
Cc1cc(C(=O)C[N+]23CCN(CC2)CC3)c(C)n1-c1ccc(Br)cc1,"inconclusive: 3.16 µM [activator, single point]",–
CC(=O)N1CC[N+](C)(C)CC1,inactive,–
OCC(Cl)CCl (configuration not stated),"inconclusive: 15.8 µM [activator, single point]",–
O=C1CC2OCC=C3CN4CC[C@@]56c7ccccc7N1C5C2C3CC46 (some centres not stated),"inconclusive: 0.794 µM [activator, single point]",–
O=C(Nc1ccccc1)N1CCC2(CC1)OCCO2,"inconclusive: 3.16 µM [activator, single point]",–
CCCC(C)(COC(N)=O)COC(=O)NC1CC1 (configuration not stated),"inconclusive: 0.1 µM [activator, full curve, poor fit]",–
O=C1NC(=S)N(Cc2ccco2)C(=O)/C1=C\c1cccs1,"inconclusive: 11.2 µM [activator, single point]",–
COC(=O)C(O)(c1ccc(NC(=S)NC(=O)c2ccc(Cl)cc2Cl)cc1)C(F)(F)F (configuration not stated),"inconclusive: 1.26 µM [activator, partial curve]",–
